Primary screen of a compound library

By UniProt entry, the sequences of proteins in these tests, tags left out. Residues count along the entry.
UniProt P9WNZ1, whole entry: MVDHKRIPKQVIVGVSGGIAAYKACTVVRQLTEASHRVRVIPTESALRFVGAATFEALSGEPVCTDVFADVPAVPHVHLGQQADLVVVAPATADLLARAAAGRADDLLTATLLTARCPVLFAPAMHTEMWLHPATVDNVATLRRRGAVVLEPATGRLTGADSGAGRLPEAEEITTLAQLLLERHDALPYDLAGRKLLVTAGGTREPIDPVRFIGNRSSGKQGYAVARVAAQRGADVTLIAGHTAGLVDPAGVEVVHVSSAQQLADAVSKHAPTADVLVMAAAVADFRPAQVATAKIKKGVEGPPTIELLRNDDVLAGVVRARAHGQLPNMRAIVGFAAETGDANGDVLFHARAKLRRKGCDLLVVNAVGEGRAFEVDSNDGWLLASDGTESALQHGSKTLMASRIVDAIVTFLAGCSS
UniProt I6X8D2, whole entry: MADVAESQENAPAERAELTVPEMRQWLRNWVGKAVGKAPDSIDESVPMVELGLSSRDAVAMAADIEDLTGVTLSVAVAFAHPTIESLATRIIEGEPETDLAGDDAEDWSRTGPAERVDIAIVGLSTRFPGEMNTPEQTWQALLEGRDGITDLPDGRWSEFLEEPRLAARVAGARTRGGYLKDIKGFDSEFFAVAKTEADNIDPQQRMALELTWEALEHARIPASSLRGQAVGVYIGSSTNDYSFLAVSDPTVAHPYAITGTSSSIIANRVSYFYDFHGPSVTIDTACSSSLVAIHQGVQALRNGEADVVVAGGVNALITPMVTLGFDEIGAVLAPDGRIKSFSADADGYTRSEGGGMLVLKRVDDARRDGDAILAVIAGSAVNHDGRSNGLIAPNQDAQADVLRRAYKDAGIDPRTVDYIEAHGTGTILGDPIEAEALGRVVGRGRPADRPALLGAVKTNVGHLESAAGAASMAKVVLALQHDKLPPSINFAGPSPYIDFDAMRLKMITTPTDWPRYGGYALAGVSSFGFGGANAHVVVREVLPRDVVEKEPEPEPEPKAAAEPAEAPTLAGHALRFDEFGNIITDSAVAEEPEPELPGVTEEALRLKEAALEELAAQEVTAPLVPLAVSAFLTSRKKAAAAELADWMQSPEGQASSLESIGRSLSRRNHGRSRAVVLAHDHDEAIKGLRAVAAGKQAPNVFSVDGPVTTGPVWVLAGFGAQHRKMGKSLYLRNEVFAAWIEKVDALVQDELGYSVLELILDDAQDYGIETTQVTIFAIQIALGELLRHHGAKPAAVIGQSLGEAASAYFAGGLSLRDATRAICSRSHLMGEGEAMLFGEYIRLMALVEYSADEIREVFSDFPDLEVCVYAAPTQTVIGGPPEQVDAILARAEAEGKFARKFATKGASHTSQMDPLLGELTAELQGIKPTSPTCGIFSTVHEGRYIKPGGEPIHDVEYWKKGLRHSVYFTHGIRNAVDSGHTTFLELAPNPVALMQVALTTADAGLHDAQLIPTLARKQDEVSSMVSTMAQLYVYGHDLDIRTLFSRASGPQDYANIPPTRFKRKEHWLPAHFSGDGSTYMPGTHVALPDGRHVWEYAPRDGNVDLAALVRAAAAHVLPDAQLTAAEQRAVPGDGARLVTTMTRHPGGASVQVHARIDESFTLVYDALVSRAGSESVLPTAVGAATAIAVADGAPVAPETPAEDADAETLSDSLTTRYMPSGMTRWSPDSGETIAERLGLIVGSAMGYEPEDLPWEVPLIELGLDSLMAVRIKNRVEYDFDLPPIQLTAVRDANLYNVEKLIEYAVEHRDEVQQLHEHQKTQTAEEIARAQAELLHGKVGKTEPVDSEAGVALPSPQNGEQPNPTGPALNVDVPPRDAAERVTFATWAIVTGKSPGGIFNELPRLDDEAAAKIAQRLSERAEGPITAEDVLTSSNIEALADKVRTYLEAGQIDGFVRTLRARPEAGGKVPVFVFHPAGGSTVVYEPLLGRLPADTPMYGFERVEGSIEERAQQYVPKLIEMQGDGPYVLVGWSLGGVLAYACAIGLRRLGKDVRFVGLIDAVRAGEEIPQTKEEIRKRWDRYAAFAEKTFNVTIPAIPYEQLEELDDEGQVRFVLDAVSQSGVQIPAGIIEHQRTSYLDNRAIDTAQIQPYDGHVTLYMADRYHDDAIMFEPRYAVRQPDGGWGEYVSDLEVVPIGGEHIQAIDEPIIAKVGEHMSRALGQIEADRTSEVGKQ
UniProt P9WFT3, whole entry: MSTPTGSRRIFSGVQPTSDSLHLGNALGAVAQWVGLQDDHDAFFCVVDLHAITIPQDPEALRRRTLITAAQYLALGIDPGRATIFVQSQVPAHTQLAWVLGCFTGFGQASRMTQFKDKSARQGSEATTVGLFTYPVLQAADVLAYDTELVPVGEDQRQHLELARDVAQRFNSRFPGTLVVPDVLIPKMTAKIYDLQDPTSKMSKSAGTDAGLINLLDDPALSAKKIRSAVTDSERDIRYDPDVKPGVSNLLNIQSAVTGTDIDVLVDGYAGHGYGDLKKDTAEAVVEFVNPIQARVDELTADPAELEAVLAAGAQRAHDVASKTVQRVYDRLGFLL
UniProt A4I591, 1-473: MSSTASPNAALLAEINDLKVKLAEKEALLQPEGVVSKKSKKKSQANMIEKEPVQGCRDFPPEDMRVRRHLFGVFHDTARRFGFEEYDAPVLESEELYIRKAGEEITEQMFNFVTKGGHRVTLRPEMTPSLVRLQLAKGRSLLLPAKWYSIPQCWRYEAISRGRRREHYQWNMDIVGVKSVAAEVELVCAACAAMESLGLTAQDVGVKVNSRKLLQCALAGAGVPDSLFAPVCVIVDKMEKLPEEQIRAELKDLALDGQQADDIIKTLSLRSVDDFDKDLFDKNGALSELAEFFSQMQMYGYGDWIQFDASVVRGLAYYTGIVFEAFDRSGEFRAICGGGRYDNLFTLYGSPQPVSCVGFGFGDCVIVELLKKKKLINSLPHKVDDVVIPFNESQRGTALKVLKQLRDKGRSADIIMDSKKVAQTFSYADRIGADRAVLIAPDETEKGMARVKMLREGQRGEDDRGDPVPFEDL

The values are deposited in ChEMBL (CHEMBL3988442, “University of Dundee, Small-Polar-MMV Screening Library” (2021)).

Values are the deposited “Percent Effect”, in %.
The controls that fix the scale are not given in the record; negative values are as filed.
Compounds were drawn at random from those tested, without regard to their results.

A: 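Enzyme assay of CoaBC with a phosphate dye (Biomol Green) read at 650 nm. Target: Coenzyme A biosynthesis protein CoaBC, Mycobacterium tuberculosis (UniProt P9WNZ1). Concentration: 30 µM. Higher reads as stronger inhibition, judged from the few compounds that gave an IC50. Most strong results did not repeat in a second test. Of about 67,000 compounds tested this way, about 40 (0.06%) reached 50% or more in at least one test.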
B: 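Polyketide synthase Pks13, Mycobacterium tuberculosis (UniProt I6X8D2). Enzyme assay of the thioesterase domain of polyketide synthase 13; the read-out is not stated. Tested at 30 µM. The record gives no direction; the compounds picked for IC50 retests had high values, so higher reads as stronger inhibition. Of about 67,000 compounds tested this way, about 300 (0.46%) reached 50% or more in at least one test.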
C: 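Tryptophan-tRNA ligase, Mycobacterium tuberculosis (UniProt P9WFT3). Enzyme assay of tryptophanyl-tRNA synthetase; the read-out is not stated. Compounds at 10 µM. Higher most likely means stronger inhibition; the record gives no direction and few retests gave an IC50. Of about 65,000 compounds tested this way, about 64 (0.098%) reached 50% or more in at least one test.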
D: 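Enzyme assay of histidyl-tRNA synthetase; the read-out is not stated. Target: Histidine-tRNA ligase, Leishmania infantum (UniProt A4I591). Concentration: 30 µM. Higher reads as stronger inhibition (inferred: compounds with an IC50 in retests scored well above the rest). The assay is labelled LdHisRS but filed under L. infantum. About 69,000 compounds were tested under these conditions; 0.6% (about 410) showed 50% or more at least once.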

{"structure": "CCC(=O)c1ccc(OCC(=O)NC(C)c2nnc(C)[nH]2)cc1", "stereo": "centres unmarked", "A": -0.9153, "B": -34.39, "C": -2.621, "D": 21.13}
{"structure": "c1ccc(OCCN2CCC(c3cnccn3)CC2)cc1", "A": -2.632, "B": -6.341, "C": 0.9115, "D": 4.317}
{"structure": "Cc1nncn1CCNC(=O)C(C)(C)c1cccc(Cl)c1", "A": 12.5, "B": -14.85, "C": -0.3632, "D": 14.04}
{"structure": "O=C(CN1CCc2cncnc2C1)NC(C1CC1)C1CC1", "A": 0.495, "B": -15.05, "C": -5.602, "D": 14}
{"structure": "O=C(c1nc(N2CCCC2)ncc1Cl)N1CCN(Cc2ccsc2)CC1", "A": 18, "C": -1.38, "D": 15.56}
{"structure": "CN(Cc1nccn1C)CC1CCOc2ccccc2C1", "stereo": "centres unmarked", "A": -0.9938, "B": -9.995, "C": -0.3303, "D": 1.587}
{"structure": "Cc1cc(CN2C[C@@H]3COC[C@]3(c3nnc(C)o3)C2)no1", "B": -6.642, "C": 11.34, "D": 15.38}
{"structure": "COC(=O)CNC(=O)CCc1cc(Br)cs1", "A": 0.4132, "B": -11.41, "C": 3.693, "D": 11.61}
{"structure": "N#Cc1ccc(CN2CC3(CCCCN3c3cccnc3)CC2=O)cc1", "stereo": "centres unmarked", "A": -2.326, "B": -44.64, "C": -2.044, "D": 28.07}
{"structure": "Cn1ccc2c(C(=O)NCC3(C(N)=O)CCOCC3)cccc21", "A": -5.212, "B": 2.191, "C": 1.077, "D": 19.35}
{"structure": "O=S(=O)(CCN1CCOC(Cn2cccn2)C1)C(F)(F)F", "stereo": "centres unmarked", "A": 2.611, "B": 3.621, "C": -0.09747, "D": 24.32}
{"structure": "Cc1nc(C)n(CC2CCCN2Cc2ncc(C(C)(C)C)o2)n1", "stereo": "centres unmarked", "A": 3.226, "B": -1.702, "C": -0.9737, "D": 15.65}
{"structure": "Nc1nc(N)c2c(n1)OC1(COCCN(Cc3nccs3)C1)C2", "stereo": "centres unmarked", "A": -3.942, "B": -6.121, "C": -2.764, "D": 14.49}
{"structure": "Cc1[nH]ncc1C(=O)NCC1CCC2(CC1)OCCO2", "A": 0.6329, "B": 5.776, "C": -1.168, "D": -3.896}
{"structure": "O=C(CC1=CCCCC1)Nc1ccc(CN2C(=O)CCC2=O)cc1", "A": -1.709, "B": -16, "C": -3.212, "D": 10.26}
{"structure": "CN(C)S(=O)(=O)N1CC[C@@H]2CN(Cc3cnn(C)c3)C[C@@H]2C1", "A": 0.1267, "B": -14.23, "C": 4.741, "D": -6.796}
{"structure": "COCCCNC(=O)CN1CCCC1c1c(C)nn(C)c1Cl", "stereo": "centres unmarked", "A": 3.133, "B": -20.86, "C": -4.191, "D": 24.32}
{"structure": "CC(C)(C)n1cc(C(=O)N2CCN(Cc3ccco3)CC2)cn1", "A": 5.45, "B": -5.453, "C": -2.448, "D": 17.86}
{"structure": "Cc1cc(CN2C[C@@H]3COC[C@]3(CNC(=O)c3ccno3)C2)no1", "A": 4.113, "B": -19.9, "C": -2.703, "D": 3.008}

Repeated from the top, 2 entries:

structure,A,B,C,D
CCC(=O)c1ccc(OCC(=O)NC(C)c2nnc(C)[nH]2)cc1 (centres unmarked),-0.9153%,-34.39%,-2.621%,21.13%
c1ccc(OCCN2CCC(c3cnccn3)CC2)cc1,-2.632%,-6.341%,0.9115%,4.317%